The record followed here is patent publication US20250135016A1 (University of Washington, priority 2016, published 2025).

* marks the point of attachment. Fmoc = O=C(OCC1c2ccccc2-c2ccccc21)*

Series [1] is described as follows: general procedure: Fmoc solid-phase peptide synthesis; rink amide; HBTU/DIEA. The note with it: whole synthesis.
The nature of series [2]: general procedure: Fmoc solid-phase peptide synthesis; Rink amide resin; HBTU/DIEA. The note with it: for step yield: late stage modification step; for oxidative folding yield: oxidative folding step; for isolated yield / isolated mass: whole synthesis; for isolated yield: overall.
Series [3] can be described thus: general procedure: Fmoc solid-phase peptide synthesis; Rink amide; HBTU/DIEA. Conditions: whole synthesis, scale 0.5 mmol; for isolated yield: overall.

In series [1] (scale 0.25 mmol), H-GGGGRGPQGIWGQGRK(N3)—NH2 displayed an isolated mass of 97.6 mg and an isolated yield of 24.5%. For Fmoc-GGGGRG-oNB-GRC-NH2, in that order: 75 mg and 22%. Substance “Fmoc-GGGGRG-oNB-GRC(HN(CO(CH2)3N3)—C—OH)—NH2 (before N3—OSu)” came in with a step yield in series [2] of 53.1%. For the substance “Fmoc-GGGGRGK(oNB-N3)GGPQGIWGQGK(CO(CH2)2CCH)GRGK-NH2 (stapled)”, the cyclisation yield in series [2] (cyclisation step) was 9.18%.

Consider “Fmoc-GGGGRGCGPQGIWGQGQGCGRK-NH2 (cysteine pairing not given here)”, for which, in series [1] (scale 0.25 mmol), the isolated mass is recorded as 126.5 mg and the isolated yield is 23.9%.

Substance H-GGGGRC((CO(CH2)3—N3)Cys)-NH2 came in with a step yield in series [2] of 21.3%.

With FAM-RGPQGIWGQGRK(N3)—NH2, the isolated yield in series [1] (overall, scale 0.50 mmol) is listed as 6.52% overall. For the same substance, the isolated mass in series [1] (scale 0.50 mmol) turned out to be 56.2 mg.

Consider Fmoc-GGGGRC(HN(CO(CH2)3—N3)Cys)-NH2, for which, in series [2], the step yield is given as 97%. In series [2], “Fmoc-GGGGRGCGPQGIWGQGQGCGRK-NH2 (staple (positions not given here))” returned an oxidative folding yield of 37.7%.

As for FAM-GRRGPQGIWGQGRGRC(—S—S—C-PL-N3)—NH2, in series [2] (scale 0.50 mmol), the isolated yield turned out to be 9.2% and the isolated mass came to 60.0 mg. On to FAM-GRGPQGIWGQGRK(PL-N3)), for which, in series [2] (scale 0.25 mmol), the isolated yield was 1.9% and the isolated mass stood at 10.3 mg. In the case of N3-oNB-RGGRK(N3)—NH2, in series [3], the isolated yield turned out to be 29.8% overall yield and the isolated mass was 147.4 mg.

Turning to Fmoc-GGGGRC-(H—C—OH)—NH2, the step yield in series [2] turned out to be 14%. In the case of “N3—(CH2)3CONH-RGPQGIWGQGRK(CO(CH2)3N3))—NH2”, in series [3], the isolated yield was 28.4% overall yield and the isolated mass is recorded as 222.0 mg. As to FAM-GRCG-PL-GCGRK(CO(CH2)3N3)—NH2, in series [2] (scale 0.25 mmol), the isolated yield amounted to 1.04% and the isolated mass is reported as 5.7 mg.

Substance “Fmoc-GGGGRGCG-oNB-GGCGRK(CO(CH2)3N3)—NH2” gave a step yield in series [2] of 50%. In series [1] (scale 0.25 mmol), H-GGGGRK(oNB-N3)—NH2 yielded an isolated mass of 41.1 mg and an isolated yield of 17.83%. As to FAM-GRGCGPQGIWGQGCGRK(CO(CH2)3N3)—NH2, in series [2] (scale 0.25 mmol), the isolated yield is given as 1.04% and the isolated mass stood at 5.7 mg. Turning to “Fmoc-GGGGRGPQGIWGQGRC (CO(CH2)3N3)Cys)-NH2”, in series [2], the step yield turned out to be 61.8%. Same read-out and setting: the same measure for Fmoc-GGGGRGPQGIWGQGRC(NH2—C—OH)—NH2: 68.5%.

In series [2], Fmoc-GGGGRGCG-oNB-GGCGRK-NH2 (stapled) had an oxidative folding yield of 59.8%. In series [1] (scale 0.25 mmol), “Fmoc-GGGGRGK(oNB-N3)GGPQGIWGQGK(CO(CH2)2CCH)GRGK-NH2” registered an isolated mass of 85 mg and an isolated yield of 12.7%. In series [1] (scale 0.25 mmol), Fmoc-GGGGRGCG-oNB-GGCGRK-NH2 displayed an isolated mass of 100 mg and an isolated yield of 22%. The substance “Fmoc-GGGGRG-oNB-GRC(HN(CO(CH2)3N3)—C—OH)—NH2” came in with a step yield in series [2] of 82.9%. For FAM-GRGCGPQGIWGQGCGRK(PL-N3)—NH2, in series [2] (scale 0.25 mmol), the isolated yield was 1.04% and the isolated mass came out at 5.7 mg. In series [2] (scale 0.50 mmol), “FAM-GRGPQGIWGQGRC(—S—S—C—CO(CH2)3N3)—NH2” showed an isolated yield of 4.4% and an isolated mass of 21.7 mg. As for “Fmoc-GGGGRGCGPQGIWGQGQGCGRK(CO(CH2)3N3)—NH2”, in series [2], the step yield was 68.6%. Turning to “Fmoc-GGGGRGK(oNB)GGPQGIWGQGK(CO(CH2)2)GRGK(CO(CH2)3—N3)—NH2”, the step yield in series [2] came out at 98%.
